How the values were obtained:
E. coli IR57 blaNDM-1 = assay: antimicrobial susceptibility testing (MIC) with meropenem, CLSI, strain IR57; conditions: Escherichia coli, IR57BLANDM1, read-out: MIC of meropenem (MEM) alone
E. coli S117 blaNDM-1 = assay: antimicrobial susceptibility testing (MIC) with meropenem, CLSI, strain S117; type: cell-based; conditions: Escherichia coli, S117BLANDM1, read-out: MIC of meropenem (MEM) alone
[1] = tested on: K. pneumoniae IR43 blaNDM-1; assay: antimicrobial susceptibility testing (MIC) with meropenem, CLSI, strain IR43; conditions: Klebsiella pneumoniae, IR43BLANDM1, read-out: MIC of meropenem (MEM) alone
[2] = tested on: K. pneumoniae B68-1 blaNDM-1; assay: antimicrobial susceptibility testing (MIC) with meropenem, CLSI, strain B68-1; conditions: Klebsiella pneumoniae, B681BLANDM1, read-out: MIC of meropenem (MEM) alone

C[C@@H](O)[C@H]1C(=O)N2C(C(=O)O)=C(S[C@@H]3CN[C@H](C(=O)N(C)C)C3)[C@H](C)[C@H]12 [MEM, meropenem] showed an MIC (E. coli IR57 blaNDM-1) of 64 µg/mL, an MIC (E. coli S117 blaNDM-1) of 256 µg/mL and an MIC [1] of 128 µg/mL. The MIC [2] was 64 µg/mL.
